Taken from: PubChem BioAssay AID1259308 (NCATS, 2017)
Assay: 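Candidate targets for better recombinant protein yield in mammalian cells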 (primary screen). Cells: human HEK293 embryonic kidney cells stably expressing firefly luciferase (HEK-CMV-Luc2-Hygro). Reagents: single siRNA against human genes, 0.8 pmol siRNA per well. Timing: 72 h. Detection: 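Reporter luminescence and viable-cell signal on separate replicate plates, given as percent of non-targeting control and median/MAD z-scores, plus per-cell luciferase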. Reading the numbers: total luciferase, z-score: higher = more reporter protein produced. Active means: 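An siRNA counts as active if its total luciferase robust z-score exceeds 3; genes with two or more such siRNAs out of three were retested with fresh siRNAs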. Meaning of the calls: active = raised luciferase; inactive = no rise.
This is one part, drawn at random, of about 59,000 deposited reagents. About 1,510 of them (2.6%) were called active. 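Calls use total luciferase alone and ignore viability, so some active siRNAs may act by altering cell number.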 Unmarked entries are inactive. The numbers tell different reagents against one gene apart. Not all columns of the deposit are shown. Reagent sequences are not shown.

BANP (BTG3 associated nuclear protein) #1 — total luciferase, z-score = 3.9 (active)
BANP (BTG3 associated nuclear protein) #2 — total luciferase, z-score = 0.933
BANP (BTG3 associated nuclear protein) #3 — total luciferase, z-score = -1.27
CDS1 (CDP-diacylglycerol synthase 1) #1 — total luciferase, z-score = 0.0851
CDS1 (CDP-diacylglycerol synthase 1) #2 — total luciferase, z-score = -1.73
CDS1 (CDP-diacylglycerol synthase 1) #3 — total luciferase, z-score = 1.38
LINC02458 (long independently transcribed non-coding RNA 2458) #1 — total luciferase, z-score = -0.146
LINC02458 (long independently transcribed non-coding RNA 2458) #2 — total luciferase, z-score = -1.19
LINC02458 (long independently transcribed non-coding RNA 2458) #3 — total luciferase, z-score = -1.56
CDX2 (caudal type homeobox 2) #1 — total luciferase, z-score = -0.533
CDX2 (caudal type homeobox 2) #2 — total luciferase, z-score = -0.57
CDX2 (caudal type homeobox 2) #3 — total luciferase, z-score = 0.426
TAS2R5 (taste 2 receptor member 5) #1 — total luciferase, z-score = 2.1
TAS2R5 (taste 2 receptor member 5) #2 — total luciferase, z-score = -0.776
TAS2R5 (taste 2 receptor member 5) #3 — total luciferase, z-score = 0.855
ODF2 (outer dense fiber of sperm tails 2) #1 — total luciferase, z-score = -0.919
ODF2 (outer dense fiber of sperm tails 2) #2 — total luciferase, z-score = -0.56
ODF2 (outer dense fiber of sperm tails 2) #3 — total luciferase, z-score = 1.65
TRAPPC12 (trafficking protein particle complex subunit 12) #1 — total luciferase, z-score = -0.688
TRAPPC12 (trafficking protein particle complex subunit 12) #2 — total luciferase, z-score = 0.758
TRAPPC12 (trafficking protein particle complex subunit 12) #3 — total luciferase, z-score = -0.475
CORO6 (coronin 6) #1 — total luciferase, z-score = 0.157
CORO6 (coronin 6) #2 — total luciferase, z-score = 2.13
CORO6 (coronin 6) #3 — total luciferase, z-score = -0.165
LINC01600 (long independently transcribed non-coding RNA 1600) #1 — total luciferase, z-score = 0.0534
LINC01600 (long independently transcribed non-coding RNA 1600) #2 — total luciferase, z-score = -1.07
LINC01600 (long independently transcribed non-coding RNA 1600) #3 — total luciferase, z-score = 0.076
BTN2A3P (butyrophilin subfamily 2 member A3, pseudogene) #1 — total luciferase, z-score = 0.954
BTN2A3P (butyrophilin subfamily 2 member A3, pseudogene) #2 — total luciferase, z-score = 1.82
BTN2A3P (butyrophilin subfamily 2 member A3, pseudogene) #3 — total luciferase, z-score = -0.757
EEF1DP3 #1 — total luciferase, z-score = 0.32
EEF1DP3 #2 — total luciferase, z-score = -0.659
EEF1DP3 #3 — total luciferase, z-score = -0.22
